Data: US7662826B2, “Pyrazolo [1,5-a] pyrimidine derivative and nad (p) h oxidase inhibitor containing the same” (Shionogi & Co., Ltd., priority 2002, dated 2010)
Some of these results come from one statement about several compounds together.

Molecular target: T1, NADH/NADPH oxidase
T1 construct: Bovine aortic membrane fraction was used as enzyme preparation
Assay: NADH/NADPH oxidase inhibition activity, lucigenin chemiluminescence, bovine aortic membrane fraction
Type: biochemical
Conditions: 5 μM lucigenin, 100 μM NADH, 37° C., pH 7.4

| IC50 [nM] | Structure (SMILES) |
| --- | --- |
| ≤ 1000 | CN(C)c1cc(C(=O)Nc2ccccc2N2CCNCC2)nc2c(-c3cccc(Cl)c3)cnn12 [Compound B220] |
| ≤ 1000 | O=C(Nc1ccccc1N1CCC(CCNCCO)CC1)c1ccn2ncc(-c3cccc(Cl)c3)c2n1 [Compound B130] |
| ≤ 1000 | C[C@@H](CO)NC1CCN(c2ccccc2NC(=O)c2ccn3ncc(-c4cccc(Cl)c4)c3n2)CC1 [Compound B214] |
| ≤ 1000 | CCNC1CCN(c2ccc(C(F)(F)F)cc2NC(=O)c2ccn3ncc(-c4ccccc4)c3n2)CC1 [Compound B200] |
| ≤ 1000 | O=C(Nc1ccccc1N1CC[C@@H](NCCO)C1)c1ccn2ncc(-c3cccc(Cl)c3)c2n1 [Compound B170] |
| ≤ 1000 | NCC(=O)NCCCN1CCN(c2ccccc2NC(=O)c2ccn3ncc(-c4cccc(Cl)c4)c3n2)CC1 [Compound B148] |
| ≤ 1000 | N[C@@H]1CCN(c2ccccc2NC(=O)c2ccn3ncc(-c4cccc(Cl)c4)c3n2)C1 [Compound A117] |
| ≤ 1000 | O=C(Nc1ccccc1N1CCNCC1)c1cc(Nc2ccc(F)cc2)n2ncc(-c3cccc(Cl)c3)c2n1 [Compound B85] |
| ≤ 1000 | N[C@H]1CCN(c2ccc(NC(=O)c3ccn4ncc(-c5cccc(Cl)c5)c4n3)cc2)C1 [Compound B286] |
| ≤ 1000 | NCC#Cc1ccccc1NC(=O)c1ccn2ncc(-c3cccc(Cl)c3)c2n1 [Compound B79] |
| ≤ 1000 | O=C(Nc1ccccc1N1CCNCC1)c1ccn2ncc(-c3ccc(OCc4ccccc4)c(F)c3)c2n1 [Compound A119] |
| ≤ 1000 | O=C(Nc1ccc(OC2CCNCC2)c(C(F)(F)F)c1)c1ccn2ncc(-c3cccc(Cl)c3)c2n1 [Compound B140] |
| ≤ 1000 | CNCC1CCCN(c2ccccc2NC(=O)c2ccn3ncc(-c4cccc(Cl)c4)c3n2)C1 (stereo not drawn) [Compound B279] |
| ≤ 1000 | C[C@@H]1CN(c2ccccc2NC(=O)c2ccn3ncc(-c4cccc(Cl)c4)c3n2)CCN1 [Compound B330] |
| ≤ 1000 | O=C(Nc1cnc2c(-c3cccc(Cl)c3)cnn2c1)c1ccccc1N1CCNCC1 [Compound B165] |
| ≤ 1000 | CN(C)c1ccc(-c2cnn3ccc(C(=O)Nc4ccccc4N4CCNCC4)nc23)cc1F [Compound B123] |
| ≤ 1000 | O=C(Nc1ccccc1N1CCNCC1)c1ccn2ncc(-c3cccc(Cl)c3)c2n1 [Compound A50] |

The next lines start with the molecule.

| Structure (SMILES) | IC50 [nM] |
| --- | --- |
| O=C(Nc1cccc(N2CCNCC2)c1)c1ccn2ncc(-c3ccc(COc4ccccc4)cc3)c2n1 [Compound B88] | ≤ 1000 |
| O=C(N[C@@H](CO)Cc1ccccc1)c1ccn2ncc(-c3ccc(NCC4CCCCC4)cc3)c2n1 [Compound B96] | ≤ 1000 |
| O=C(Nc1cccc(N2CCNCC2)c1)c1ccn2ncc(-c3ccc(NCc4ccccc4)cc3)c2n1 [Compound B64] | ≤ 1000 |
| Cc1cc(C)cc(-c2cnn3ccc(C(=O)Nc4ccc(N5CCNCC5)cc4)nc23)c1 [Compound B321] | ≤ 1000 |
| CN(Cc1ccccc1)c1ccc(-c2cnn3ccc(C(=O)Nc4cccc(N5CCNCC5)c4)nc23)cc1 [Compound B87] | ≤ 1000 |
| O=C(Nc1cc(F)ccc1N1CCNCC1)c1ccn2ncc(-c3ccc(COc4ccccc4)cc3)c2n1 [Compound B320] | ≤ 1000 |
| CCNC1CCN(c2cccc(NC(=O)c3ccn4ncc(-c5ccc(NCC6CCCCC6)cc5)c4n3)c2)CC1 [Compound B154] | ≤ 1000 |
| O=C(Nc1cccc(N2CCNCC2)c1)c1ccn2ncc(C#CCCCc3ccccc3)c2n1 [Compound B26] | ≤ 1000 |
| CC(C)N(Cc1ccccc1)c1ccc(-c2cnn3ccc(C(=O)Nc4cccc(N5CCNCC5)c4)nc23)cc1 [Compound B110] | ≤ 1000 |
| O=C(c1ccn2ncc(-c3ccc(OCc4ccccc4)cc3)c2n1)N1CCc2ccccc2C1 [Compound A318] | ≤ 1000 |
| C[C@@H]1CN(c2cccc(NC(=O)c3ccn4ncc(-c5ccc(NCc6ccccc6)cc5)c4n3)c2)C[C@H](C)N1 [Compound B151] | ≤ 1000 |
| O=C(Nc1ccccc1N1CCNCC1)c1ccn2ncc(C#CCCc3ccccc3)c2n1 [Compound A253] | ≤ 1000 |
| O=C(NCc1ccccc1N1CCNCC1)Nc1cnc2c(-c3ccc(Cl)cc3)cnn2c1 [Compound B263] | ≤ 1000 |
